Measurements taken from PMC4297935.
No constants are given. Whether binding was seen depends on the method and setting. In cells and extracts the contact can be indirect. Some entries that bind do so weakly or less than the wild type.

The chains behind the UniProt entries cited, without tags or fusion partners.
UniProt P08047: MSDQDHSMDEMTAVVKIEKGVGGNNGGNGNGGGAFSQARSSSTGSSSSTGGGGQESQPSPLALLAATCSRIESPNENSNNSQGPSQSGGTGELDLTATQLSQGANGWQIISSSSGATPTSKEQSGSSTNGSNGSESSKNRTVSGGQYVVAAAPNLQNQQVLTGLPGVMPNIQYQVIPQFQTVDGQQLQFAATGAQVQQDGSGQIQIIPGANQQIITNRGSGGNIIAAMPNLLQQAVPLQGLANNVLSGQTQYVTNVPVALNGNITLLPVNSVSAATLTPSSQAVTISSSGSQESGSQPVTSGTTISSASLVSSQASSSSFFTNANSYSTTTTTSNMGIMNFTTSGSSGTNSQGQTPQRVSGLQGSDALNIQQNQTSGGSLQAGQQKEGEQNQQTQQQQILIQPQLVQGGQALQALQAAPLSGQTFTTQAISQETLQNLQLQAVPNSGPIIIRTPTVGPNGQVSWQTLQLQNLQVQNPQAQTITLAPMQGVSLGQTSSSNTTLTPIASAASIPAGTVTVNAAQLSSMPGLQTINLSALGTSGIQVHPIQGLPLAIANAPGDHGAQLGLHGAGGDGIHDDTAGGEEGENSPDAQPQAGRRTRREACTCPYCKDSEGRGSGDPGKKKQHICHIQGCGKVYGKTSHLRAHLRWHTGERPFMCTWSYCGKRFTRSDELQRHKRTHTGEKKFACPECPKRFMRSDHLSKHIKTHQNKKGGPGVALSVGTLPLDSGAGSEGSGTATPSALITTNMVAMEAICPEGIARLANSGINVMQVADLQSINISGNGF
UniProt Q02447: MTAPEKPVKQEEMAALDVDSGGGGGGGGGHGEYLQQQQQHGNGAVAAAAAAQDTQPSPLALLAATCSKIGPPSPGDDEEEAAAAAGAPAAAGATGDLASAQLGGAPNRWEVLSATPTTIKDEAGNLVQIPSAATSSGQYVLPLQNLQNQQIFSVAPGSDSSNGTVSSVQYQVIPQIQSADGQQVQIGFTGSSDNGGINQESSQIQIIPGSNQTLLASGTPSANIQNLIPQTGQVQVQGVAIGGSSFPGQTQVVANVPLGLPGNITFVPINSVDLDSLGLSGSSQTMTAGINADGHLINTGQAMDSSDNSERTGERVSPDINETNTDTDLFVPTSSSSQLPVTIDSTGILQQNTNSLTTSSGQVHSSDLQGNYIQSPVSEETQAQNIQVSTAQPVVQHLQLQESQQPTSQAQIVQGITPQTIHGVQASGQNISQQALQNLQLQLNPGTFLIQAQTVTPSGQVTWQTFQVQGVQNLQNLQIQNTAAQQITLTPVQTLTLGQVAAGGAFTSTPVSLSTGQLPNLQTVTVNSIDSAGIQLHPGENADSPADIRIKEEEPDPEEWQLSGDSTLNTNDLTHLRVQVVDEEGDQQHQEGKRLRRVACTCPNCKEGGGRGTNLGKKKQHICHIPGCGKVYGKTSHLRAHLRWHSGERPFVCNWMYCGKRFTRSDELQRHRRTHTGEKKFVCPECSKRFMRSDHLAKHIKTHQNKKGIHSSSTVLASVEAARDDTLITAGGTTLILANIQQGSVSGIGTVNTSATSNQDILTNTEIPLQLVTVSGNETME
UniProt Q92731: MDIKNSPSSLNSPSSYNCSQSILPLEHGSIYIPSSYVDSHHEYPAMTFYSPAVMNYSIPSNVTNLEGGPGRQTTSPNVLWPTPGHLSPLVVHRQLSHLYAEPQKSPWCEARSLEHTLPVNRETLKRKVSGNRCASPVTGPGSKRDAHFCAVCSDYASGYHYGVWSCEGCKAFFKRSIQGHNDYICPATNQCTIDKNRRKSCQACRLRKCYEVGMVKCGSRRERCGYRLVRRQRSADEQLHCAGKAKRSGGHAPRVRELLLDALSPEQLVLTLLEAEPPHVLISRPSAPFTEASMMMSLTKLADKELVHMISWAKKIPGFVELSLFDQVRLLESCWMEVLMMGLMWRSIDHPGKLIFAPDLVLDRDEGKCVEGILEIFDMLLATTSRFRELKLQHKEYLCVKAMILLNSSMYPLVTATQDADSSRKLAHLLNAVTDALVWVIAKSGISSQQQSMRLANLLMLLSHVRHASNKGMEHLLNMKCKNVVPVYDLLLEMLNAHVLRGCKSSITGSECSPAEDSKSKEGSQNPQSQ

Assays:
[1] = molecular target: specificity protein-1 (Sp1) (human (endogenous in HAECs)) (UniProt P08047); assay: co-IP; nuclear extracts of treated HAECs (control, 100 nM E2, or E2 plus ICI 182,780, 48 h) immunoprecipitated with Sp1 antibody, immunoblotted for Sp1, ERα and ERβ
[2] = molecular target: Sp3 (human (endogenous in HAECs)) (UniProt Q02447); assay: co-IP; IP/IB for Sp3/ERβ from nuclear extracts of treated HAECs; no figure is given

Q: Which results are given for “estrogen receptor beta (ERβ) (from UniProt Q92731 1-530)”?
A: binding [1]: binds; binding [2]: no binding
